Measured values taken from the supplement of paper PMC8728848.
The other results are listed elsewhere or left out.

Experiments:
Test in all cases: glycan array binding signal (z-score within array); higher = stronger binding
Conditions in all cases: glycan notation: IUPAC condensed, linker removed
[1] = molecular target: Gal(b1-4)GlcNAc(b1-2)Man(a1-6)[GlcNAc(b1-2)Man(a1-3)]Man(b1-4)GlcNAc(b1-4)GlcNAc
Outline: (§1)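 Glycan array data were curated from 3228 arrays in the Consortium for Functional Glycomics database and kept only where the protein sequence was available. Glycan names were converted to IUPAC-condensed notation, and columns mapping to the same glycan were averaged. The binding signal is a within-array Z-score, averaged across arrays of the same protein sequence at different concentrations or buffers and across linkers. Negative Z-scores can be read as non-binding.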

[2] = molecular target: Gal(b1-4)GlcNAc(b1-2)Man(a1-6)[Man(a1-3)]Man(b1-4)GlcNAc(b1-4)GlcNAc
Outline: as §1

[3] = molecular target: Gal(b1-4)GlcNAc(b1-2)[Gal(b1-4)GlcNAc(b1-4)]Man(a1-3)[Gal(b1-4)GlcNAc(b1-2)Man(a1-6)]Man(b1-4)GlcNAc(b1-4)GlcNAc
Outline: as §1

[4] = molecular target: Gal(b1-4)GlcNAc(b1-2)[Gal(b1-4)GlcNAc(b1-4)]Man(a1-3)[Gal(b1-4)GlcNAc(b1-2)[Gal(b1-4)GlcNAc(b1-6)]Man(a1-6)]Man(b1-4)GlcNAc(b1-4)GlcNAc
Outline: as §1

[5] = molecular target: Gal(b1-4)GlcNAc(b1-2)[Gal(b1-4)GlcNAc(b1-4)]Man(a1-3)[GlcNAc(b1-4)][Gal(b1-4)GlcNAc(b1-2)Man(a1-6)]Man(b1-4)GlcNAc(b1-4)GlcNAc
Outline: as §1

[6] = molecular target: Gal(b1-4)GlcNAc(b1-2)[Gal(b1-4)GlcNAc(b1-4)]Man(a1-3)[GlcNAc(b1-4)][Gal(b1-4)GlcNAc(b1-2)[Gal(b1-4)GlcNAc(b1-6)]Man(a1-6)]Man(b1-4)GlcNAc(b1-4)GlcNAc
Outline: as §1

[7] = molecular target: Gal(b1-4)GlcNAc(b1-2)[Gal(b1-4)GlcNAc(b1-6)]Man(a1-6)[Gal(b1-4)GlcNAc(b1-2)Man(a1-3)]Man(b1-4)GlcNAc(b1-4)GlcNAc
Outline: as §1

[8] = molecular target: Gal(b1-4)GlcNAc(b1-2)[Gal(b1-4)GlcNAc(b1-6)]Man(a1-6)[Gal(b1-4)GlcNAc(b1-2)Man(a1-3)]Man(b1-4)GlcNAc(b1-4)[Fuc(a1-6)]GlcNAc
Outline: as §1

[9] = molecular target: Gal(b1-4)GlcNAc(b1-2)[Gal(b1-4)GlcNAc(b1-6)]Man(a1-6)[GlcNAc(b1-4)][Gal(b1-4)GlcNAc(b1-2)Man(a1-3)]Man(b1-4)GlcNAc(b1-4)GlcNAc
Outline: as §1

[10] = molecular target: Gal(b1-4)GlcNAc(b1-2)[Gal(b1-4)GlcNAc(b1-6)]Man(a1-6)[GlcNAc(b1-4)][Gal(b1-4)GlcNAc(b1-2)[Gal(b1-4)GlcNAc(b1-4)]Man(a1-3)]Man(b1-4)GlcNAc(b1-4)[Fuc(a1-6)]GlcNAc
Outline: as §1

[11] = molecular target: Gal(b1-4)GlcNAc(b1-3)Gal(b1-3)GalNAc
Outline: as §1

[12] = molecular target: Gal(b1-4)GlcNAc(b1-3)Gal(b1-3)GlcNAc
Outline: as §1

[13] = molecular target: Gal(b1-4)GlcNAc(b1-3)Gal(b1-4)Glc
Outline: as §1

[14] = molecular target: Gal(b1-4)GlcNAc(b1-3)Gal(b1-4)GlcNAc
Outline: as §1

[15] = molecular target: Gal(b1-4)GlcNAc(b1-3)Gal(b1-4)GlcNAc(b1-2)Man(a1-3)[Gal(b1-4)GlcNAc(b1-3)Gal(b1-4)GlcNAc(b1-2)Man(a1-6)]Man(b1-4)GlcNAc(b1-4)GlcNAc
Outline: as §1

[16] = molecular target: Gal(b1-4)GlcNAc(b1-3)Gal(b1-4)GlcNAc(b1-2)Man(a1-3)[Gal(b1-4)GlcNAc(b1-3)Gal(b1-4)GlcNAc(b1-2)Man(a1-6)]Man(b1-4)GlcNAc(b1-4)[Fuc(a1-6)]GlcNAc
Outline: as §1

[17] = molecular target: Gal(b1-4)GlcNAc(b1-3)Gal(b1-4)GlcNAc(b1-2)[Gal(b1-4)GlcNAc(b1-3)Gal(b1-4)GlcNAc(b1-6)]Man(a1-6)[Gal(b1-4)GlcNAc(b1-3)Gal(b1-4)GlcNAc(b1-2)Man(a1-3)]Man(b1-4)GlcNAc(b1-4)GlcNAc
Outline: as §1

[18] = molecular target: Gal(b1-4)GlcNAc(b1-3)Gal(b1-4)GlcNAc(b1-2)[Gal(b1-4)GlcNAc(b1-3)Gal(b1-4)GlcNAc(b1-6)]Man(a1-6)[Gal(b1-4)GlcNAc(b1-3)Gal(b1-4)GlcNAc(b1-2)Man(a1-3)]Man(b1-4)GlcNAc(b1-4)[Fuc(a1-6)]GlcNAc
Outline: as §1

[19] = molecular target: Gal(b1-4)GlcNAc(b1-3)Gal(b1-4)GlcNAc(b1-3)Gal(b1-4)GlcNAc
Outline: as §1

[20] = molecular target: Gal(b1-4)GlcNAc(b1-3)Gal(b1-4)GlcNAc(b1-3)Gal(b1-4)GlcNAc(b1-2)Man(a1-3)[Gal(b1-4)GlcNAc(b1-3)Gal(b1-4)GlcNAc(b1-3)Gal(b1-4)GlcNAc(b1-2)Man(a1-6)]Man(b1-4)GlcNAc(b1-4)GlcNAc
Outline: as §1

[21] = molecular target: Gal(b1-4)GlcNAc(b1-3)Gal(b1-4)GlcNAc(b1-3)Gal(b1-4)GlcNAc(b1-2)Man(a1-3)[Gal(b1-4)GlcNAc(b1-3)Gal(b1-4)GlcNAc(b1-3)Gal(b1-4)GlcNAc(b1-2)Man(a1-6)]Man(b1-4)GlcNAc(b1-4)[Fuc(a1-6)]GlcNAc
Outline: as §1

[22] = molecular target: Gal(b1-4)GlcNAc(b1-3)Gal(b1-4)GlcNAc(b1-3)Gal(b1-4)GlcNAc(b1-2)[Gal(b1-4)GlcNAc(b1-3)Gal(b1-4)GlcNAc(b1-3)Gal(b1-4)GlcNAc(b1-6)]Man(a1-6)[Gal(b1-4)GlcNAc(b1-3)Gal(b1-4)GlcNAc(b1-3)Gal(b1-4)GlcNAc(b1-2)Man(a1-3)]Man(b1-4)GlcNAc(b1-4)[Fuc(a1-6)]GlcNAc
Outline: as §1

[23] = molecular target: Gal(b1-4)GlcNAc(b1-3)Gal(b1-4)GlcNAc(b1-3)Gal(b1-4)GlcNAc(b1-3)Gal(b1-4)GlcNAc(b1-2)Man(a1-3)[Gal(b1-4)GlcNAc(b1-3)Gal(b1-4)GlcNAc(b1-3)Gal(b1-4)GlcNAc(b1-3)Gal(b1-4)GlcNAc(b1-2)Man(a1-6)]Man(b1-4)GlcNAc(b1-4)GlcNAc
Outline: as §1

[24] = molecular target: Gal(b1-4)GlcNAc(b1-3)Gal(b1-4)GlcNAc(b1-3)Gal(b1-4)GlcNAc(b1-3)Gal(b1-4)GlcNAc(b1-2)Man(a1-3)[Gal(b1-4)GlcNAc(b1-3)Gal(b1-4)GlcNAc(b1-3)Gal(b1-4)GlcNAc(b1-3)Gal(b1-4)GlcNAc(b1-2)Man(a1-6)]Man(b1-4)GlcNAc(b1-4)[Fuc(a1-6)]GlcNAc
Outline: as §1

[25] = molecular target: Gal(b1-4)GlcNAc(b1-3)Gal(b1-4)GlcNAc(b1-3)Gal(b1-4)GlcNAc(b1-3)Gal(b1-4)GlcNAc(b1-2)[Gal(b1-4)GlcNAc(b1-3)Gal(b1-4)GlcNAc(b1-3)Gal(b1-4)GlcNAc(b1-3)Gal(b1-4)GlcNAc(b1-6)]Man(a1-6)[Gal(b1-4)GlcNAc(b1-3)Gal(b1-4)GlcNAc(b1-3)Gal(b1-4)GlcNAc(b1-3)Gal(b1-4)GlcNAc(b1-2)Man(a1-3)]Man(b1-4)GlcNAc(b1-4)[Fuc(a1-6)]GlcNAc
Outline: as §1

[26] = molecular target: Gal(b1-4)GlcNAc(b1-3)Gal(b1-4)GlcNAc(b1-3)Gal(b1-4)GlcNAc(b1-3)Gal(b1-4)GlcNAc(b1-3)Gal(b1-4)GlcNAc(b1-2)Man(a1-3)[Gal(b1-4)GlcNAc(b1-3)Gal(b1-4)GlcNAc(b1-3)Gal(b1-4)GlcNAc(b1-3)Gal(b1-4)GlcNAc(b1-3)Gal(b1-4)GlcNAc(b1-2)Man(a1-6)]Man(b1-4)GlcNAc(b1-4)GlcNAc
Outline: as §1

[27] = molecular target: Gal(b1-4)GlcNAc(b1-3)Gal(b1-4)GlcNAc(b1-3)Gal(b1-4)GlcNAc(b1-3)Gal(b1-4)GlcNAc(b1-3)Gal(b1-4)GlcNAc(b1-2)Man(a1-3)[Gal(b1-4)GlcNAc(b1-3)Gal(b1-4)GlcNAc(b1-3)Gal(b1-4)GlcNAc(b1-3)Gal(b1-4)GlcNAc(b1-3)Gal(b1-4)GlcNAc(b1-2)Man(a1-6)]Man(b1-4)GlcNAc(b1-4)[Fuc(a1-6)]GlcNAc
Outline: as §1

[28] = molecular target: Gal(b1-4)GlcNAc(b1-3)Gal(b1-4)GlcNAc(b1-3)Gal(b1-4)GlcNAc(b1-3)Gal(b1-4)GlcNAc(b1-3)Gal(b1-4)GlcNAc(b1-2)[Gal(b1-4)GlcNAc(b1-3)Gal(b1-4)GlcNAc(b1-3)Gal(b1-4)GlcNAc(b1-3)Gal(b1-4)GlcNAc(b1-3)Gal(b1-4)GlcNAc(b1-6)]Man(a1-6)[Gal(b1-4)GlcNAc(b1-3)Gal(b1-4)GlcNAc(b1-3)Gal(b1-4)GlcNAc(b1-3)Gal(b1-4)GlcNAc(b1-3)Gal(b1-4)GlcNAc(b1-2)Man(a1-3)]Man(b1-4)GlcNAc(b1-4)[Fuc(a1-6)]GlcNAc
Outline: as §1

[29] = molecular target: Gal(b1-4)GlcNAc(b1-3)Gal(b1-4)GlcNAc(b1-3)Gal(b1-4)GlcNAc(b1-3)Gal(b1-4)GlcNAc(b1-3)Gal(b1-4)GlcNAc(b1-3)Gal(b1-4)GlcNAc(b1-2)Man(a1-3)[Gal(b1-4)GlcNAc(b1-3)Gal(b1-4)GlcNAc(b1-3)Gal(b1-4)GlcNAc(b1-3)Gal(b1-4)GlcNAc(b1-3)Gal(b1-4)GlcNAc(b1-3)Gal(b1-4)GlcNAc(b1-2)Man(a1-6)]Man(b1-4)GlcNAc(b1-4)GlcNAc
Outline: as §1

[30] = molecular target: Gal(b1-4)GlcNAc(b1-3)Gal(b1-4)GlcNAc(b1-3)GalNAc
Outline: as §1

[31] = molecular target: Gal(b1-4)GlcNAc(b1-3)Gal(b1-4)GlcNAc(b1-3)[Gal(b1-4)GlcNAc(b1-3)Gal(b1-4)GlcNAc(b1-6)]GalNAc
Outline: as §1

[32] = molecular target: Gal(b1-4)GlcNAc(b1-3)Gal(b1-4)GlcNAc(b1-6)[Gal(b1-3)]GalNAc
Outline: as §1

[33] = molecular target: Gal(b1-4)GlcNAc(b1-3)Gal(b1-4)[Fuc(a1-3)]GlcNAc(b1-3)Gal(b1-4)[Fuc(a1-3)]GlcNAc
Outline: as §1

[34] = molecular target: Gal(b1-4)GlcNAc(b1-3)GalNAc
Outline: as §1

[35] = molecular target: Gal(b1-4)GlcNAc(b1-3)[Fuc(a1-3)GlcNAc(b1-6)]Gal(b1-4)Glc
Outline: as §1

[36] = molecular target: Gal(b1-4)GlcNAc(b1-3)[Gal(b1-4)GlcNAc(b1-6)]Gal(b1-4)GlcNAc
Outline: as §1

[37] = molecular target: Gal(b1-4)GlcNAc(b1-3)[GlcNAc(b1-6)]Gal(b1-4)GlcNAc
Outline: as §1

B1: Epa19 (Candida glabrata) (protein)
chain: MGSSHHHHHHSSGLVPRGSHMASSKDPTRFPIGCSPQVLKTQPGLAVKLYSYGHPVPGCSYITYQYPDFPRSGYKKERKLADITGVNGKIDIDLKPNDPCRVLTGHLPSNYNYPDTLTYTNFTMILYGYFQPKVTGYHTFNLEADDLLFMNLGAGNAFDCCKAESTLDNFGNYQSYSLWGSDYAKANITVFLVSGVYYPIRLFYVNRDNNAVIDFSFTTEFDKEKVHDFTSYFFSASDGEQCPGSV
glycan array binding signal (z-score) [1]: 0.102
glycan array binding signal (z-score) [2]: 0.854
glycan array binding signal (z-score) [3]: -0.535
glycan array binding signal (z-score) [4]: -0.724
glycan array binding signal (z-score) [5]: -0.328
glycan array binding signal (z-score) [6]: -1.07
glycan array binding signal (z-score) [7]: -1.26
glycan array binding signal (z-score) [8]: -0.425
glycan array binding signal (z-score) [9]: -0.388
glycan array binding signal (z-score) [10]: 0.533
glycan array binding signal (z-score) [11]: -0.47
glycan array binding signal (z-score) [12]: 0.038
glycan array binding signal (z-score) [13]: 0.059
glycan array binding signal (z-score) [14]: -0.486
glycan array binding signal (z-score) [15]: 2.29
glycan array binding signal (z-score) [16]: 0.186
glycan array binding signal (z-score) [17]: 0.736
glycan array binding signal (z-score) [18]: 0.241
glycan array binding signal (z-score) [19]: -0.32
glycan array binding signal (z-score) [20]: 0.479
glycan array binding signal (z-score) [21]: 0.256
glycan array binding signal (z-score) [22]: 0.72
glycan array binding signal (z-score) [23]: -0.168
glycan array binding signal (z-score) [24]: 0.518
glycan array binding signal (z-score) [25]: 0.024
glycan array binding signal (z-score) [26]: 0.415
glycan array binding signal (z-score) [27]: 0.942
glycan array binding signal (z-score) [28]: -0.151
glycan array binding signal (z-score) [29]: 0.913
glycan array binding signal (z-score) [30]: 0.883
glycan array binding signal (z-score) [31]: 1.4
glycan array binding signal (z-score) [32]: 0.735
glycan array binding signal (z-score) [33]: -0.534
glycan array binding signal (z-score) [34]: -0.22
glycan array binding signal (z-score) [35]: 0.024
glycan array binding signal (z-score) [36]: -0.482
glycan array binding signal (z-score) [37]: -1.47
